From PubChem BioAssay AID743255 (National Center for Advancing Translational Sciences (NCATS), 2014)
The campaign covered roughly 390,000 compounds. About 910 (0.23%) were called active. This list was built around the results that the source calls inconclusive (neither active nor inactive); the mix of calls is not that of the screen. Calls follow the shape of the dose curve; as a rule, active = well fitted inhibition curve with a large enough effect; inconclusive = small, poorly fitted or top-dose-only effect; inactive = no such curve, though single readings can be large or run the other way. Potencies beside an inconclusive call are fits to weak or partial responses and may not hold up.

The chains behind the UniProt entries cited, without tags or fusion partners. Where a name states a change or a piece, a line headed by the entry shows the natural chain unless it says otherwise.
UniProt O94782: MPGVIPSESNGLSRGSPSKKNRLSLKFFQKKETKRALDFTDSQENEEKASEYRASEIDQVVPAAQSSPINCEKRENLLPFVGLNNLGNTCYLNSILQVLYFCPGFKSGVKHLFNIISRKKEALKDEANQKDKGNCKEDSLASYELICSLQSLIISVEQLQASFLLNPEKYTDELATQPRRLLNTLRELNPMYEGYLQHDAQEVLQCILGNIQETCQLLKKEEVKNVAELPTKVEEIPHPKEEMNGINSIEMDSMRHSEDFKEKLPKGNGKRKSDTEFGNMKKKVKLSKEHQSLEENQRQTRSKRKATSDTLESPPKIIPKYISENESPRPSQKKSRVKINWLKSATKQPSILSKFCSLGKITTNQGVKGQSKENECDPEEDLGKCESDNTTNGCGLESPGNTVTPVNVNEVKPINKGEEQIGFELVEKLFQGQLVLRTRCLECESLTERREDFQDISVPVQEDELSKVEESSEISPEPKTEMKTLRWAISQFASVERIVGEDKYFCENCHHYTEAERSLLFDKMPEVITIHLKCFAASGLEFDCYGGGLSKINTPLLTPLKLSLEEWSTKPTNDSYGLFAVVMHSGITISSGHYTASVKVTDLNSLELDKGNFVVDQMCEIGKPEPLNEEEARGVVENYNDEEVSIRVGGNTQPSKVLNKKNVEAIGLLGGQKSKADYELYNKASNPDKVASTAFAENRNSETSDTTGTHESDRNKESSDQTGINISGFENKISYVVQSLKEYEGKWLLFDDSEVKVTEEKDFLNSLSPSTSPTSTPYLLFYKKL

The compounds below were run against Ubiquitin carboxyl-terminal hydrolase 1 (Homo sapiens) (UniProt O94782) (assay: Inhibitors of USP1/UAF1: Primary Screen). Conditions: recombinant USP1/UAF1, Ub-Rhodamine cleavage fluorescence; activity change, negative = inhibition: at 57.1 µM (top of the series).
Method in brief: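 1 nM enzyme complex + cpd, 15 min RT; start with Ub-Rho 150nM final; kinetic fluorescence ex 480/em 540, 6 reads q60 s. Buffer 50mM HEPES pH 7.8, 0.5mM EDTA, 0.1 mg/ml BSA, 1mM TCEP, 0.01% Tween-20.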
% is scaled to controls: 0 for no effect and ±100 for the full control effect; potency is read from the fitted curve at half-maximal effect.
Also: nearly all actives have a fitted effect of over 60% in size.

Potency, active:
N#C/C(=C/c1ccc(N2CCOCC2)o1)C(=O)Nc1ccccc1 25.1 µM

Potency, inconclusive:
Cc1ccc(C)c(NC(=O)CN2C(=O)COc3ccc(S(=O)(=O)N4CCCC4)cc32)c1 7.08 µM [inhibitor, full curve, poor fit]
C=CCC(NC(=O)Cc1ccccc1)C(=O)NCCC (configuration not stated) 44.7 µM [inhibitor, partial curve, poor fit]
C/C(=N\NC(=S)NC1CCCCC1)c1ccc(O)cc1 3.16 µM [inhibitor, full curve, poor fit]
CC1CCN(C(=O)c2cc(-c3ccc(Cl)cc3)on2)CC1 1120 µM [inhibitor, partial curve, poor fit]
CCOc1cc(/C=C2\N=C3CCCCCN3C2=O)ccc1O 39.8 µM [inhibitor, partial curve]
N#Cc1ccc(CN(c2ccncc2)S(=O)(=O)c2ccccc2)cc1 35.5 µM [inhibitor, single point]
COc1ccc(NC(=O)Nc2nnc(N(C)C3CCCCC3)s2)c(OC)c1 22.4 µM [inhibitor, partial curve, poor fit]
N#CCCN1CCCc2cc(N=Nc3ccc(C(F)(F)F)cc3)ccc21 15.8 µM [inhibitor, partial curve]
CCOC(=O)/C(C#N)=C/c1ccc(N2CCCCC2)cc1 35.5 µM [inhibitor, partial curve, poor fit]
COc1ccc2ccccc2c1C1CC(=O)N2CN(C)CSC2=C1C#N (configuration not stated) 35.5 µM [inhibitor, partial curve]
CCCNc1c(NS(=O)(=O)c2c(F)c(F)c(F)c(F)c2F)c(=O)oc2ccccc12 39.8 µM [inhibitor, partial curve, poor fit]
COC(=O)c1csc(C2OC(CO)C(O)C2O)n1 (configuration not stated) 7.94 µM [inhibitor, partial curve, poor fit]
COc1ccc(N(CC(=O)NCC2CCCO2)C(=O)CCC(=O)Nc2cc(C)on2)cc1OC (configuration not stated) 39.8 µM [inhibitor, single point]
COc1cccc(Cn2c(=O)n(-c3ccc(Br)cc3F)c(=O)c3sc4ccccc4c32)c1 0.0141 µM [inhibitor, full curve, poor fit]
CCOC(=O)c1c(-c2ccc(C)cc2C)csc1NC(=O)CSc1nnnn1C 35.5 µM [inhibitor, single point]
Cc1nc2ccc([N+](=O)[O-])cc2[nH]1 12.6 µM [inhibitor, partial curve, poor fit]
Cc1ccc(-c2cc3ncc(C#N)c(N)n3n2)cc1 25.1 µM [inhibitor, single point]
O=C1Nc2ccc(F)cc2C12Nc1ccccc1-c1nnc(SCc3ccccc3F)nc1O2 (configuration not stated) 0.891 µM [inhibitor, partial curve]
Cc1nonc1NC(=O)CSc1nnc(N)s1 2.51 µM [inhibitor, full curve]
COc1ccc(-c2noc(N3CCC(C(=O)Nc4ccc(C)c(F)c4)CC3)n2)cc1OC 6.31 µM [inhibitor, single point]
COc1ccc(CNC(=O)c2cccc(NC(=O)N3CCSc4ncccc43)c2)cc1 0.0891 µM [inhibitor, full curve, poor fit]
CC(C)c1ccc(NC(=O)c2cccn2-c2nnc(N3CCCCC3)s2)cc1 6.31 µM [inhibitor, single point]
COc1ccc(Br)cc1C1CC(=O)N2CN(C)CSC2=C1C#N (configuration not stated) 0.282 µM [inhibitor, full curve]
O=C(CN1C(=O)C2(SCC(=O)N2c2cccc(Cl)c2)c2ccccc21)NC1CCCCC1 (configuration not stated) 112 µM [inhibitor, partial curve, poor fit]
NS(=O)(=O)c1ccc(CCNc2nc3c(-c4cccc(F)c4)nnn3c3ccc(Cl)cc23)cc1 4.47 µM [inhibitor, full curve, poor fit]
COc1cccc(NC(=O)CN(C)CC(=O)Nc2cccc(C(F)(F)F)c2)c1 0.282 µM [inhibitor, full curve, poor fit]
COc1ccc(C(C[N+](=O)[O-])c2c(C)[nH]n(-c3ccccc3)c2=O)cc1 (configuration not stated) 31.6 µM [inhibitor, partial curve]
CCOC(=O)c1sc2ccccc2c1OC(=O)c1ccccc1 44.7 µM [inhibitor, partial curve]
O=C(NCCc1ccc(Cl)cc1)C1COc2ccccc2O1 (configuration not stated) 11.2 µM [inhibitor, single point]
CN(C)c1ccc(/C=C/c2cccc[n+]2[O-])cc1 39.8 µM [inhibitor, single point]
CCOC(=O)c1cc2sccc2n1CC(=O)C(C)(C)C 39.8 µM [inhibitor, single point]
CC(=O)c1cc(-c2ccccc2)n(CCC(=O)Nc2cc(C)cc(C)c2)c1C 0.631 µM [inhibitor, full curve, poor fit]
CC(=O)N(C)C1=C(N2CCOCC2)C(=O)c2ccccc2C1=O 20 µM [inhibitor, partial curve, poor fit]
Cn1c(=O)c2[nH]c(-c3ccc(S(=O)(=O)O)cc3)nc2n(C)c1=O 89.1 µM [inhibitor, partial curve]
Cc1csc2c(=O)sc(NC(=O)c3cccs3)nc12 7.94 µM [inhibitor, partial curve, poor fit]
O=[N+]([O-])c1ccc(-c2cn3nc(-c4ccccc4)c(-c4ccccc4)nc3n2)cc1 6.31 µM [inhibitor, single point]
COc1cc(-c2c(-c3ccc4c(c3)OCO4)noc2C)ccc1F 0.282 µM [inhibitor, full curve, poor fit]
COc1ccc(/C=N/NC(=O)c2ccc(COc3ccccc3Cl)o2)cc1 44.7 µM [inhibitor, single point]
C=C1[C@@H](CCO)N(S(=O)(=O)C(C)(C)C)C[C@@H]1C 79.4 µM [inhibitor, partial curve, poor fit]
COCCOC(=O)c1c(NC(=O)CN(C)c2ccccc2)sc(C(N)=O)c1C 0.708 µM [inhibitor, full curve]
Cc1ccc(CNC(=O)C2CCN(S(=O)(=O)c3cnc[nH]3)CC2)cc1 0.251 µM [inhibitor, full curve, poor fit]
CCCOc1cccc(C(=O)Nc2ccc(-c3nc4ccccc4o3)cc2)c1 0.708 µM [inhibitor, full curve, poor fit]
Cc1ccc(C)c(N2CCN(C(=O)c3c4c(nc5ccccc35)C(=O)N(C3CCCCC3)C4)CC2)c1 35.5 µM [inhibitor, partial curve]
CC[C@@H]1C(c2ccccc2)=NN(c2ccccc2)[C@H]1C(=O)N1CCOC1=O 39.8 µM [inhibitor, partial curve, poor fit]
Cc1ccc(C(=O)c2sc(Nc3ccccc3)c(C#N)c2N)cc1 6.31 µM [inhibitor, single point]

A portion of the results above, for reference:
Potency, inconclusive:
CC1CCN(C(=O)c2cc(-c3ccc(Cl)cc3)on2)CC1 1120 µM [inhibitor, partial curve, poor fit]
CCOc1cc(/C=C2\N=C3CCCCCN3C2=O)ccc1O 39.8 µM [inhibitor, partial curve]
N#Cc1ccc(CN(c2ccncc2)S(=O)(=O)c2ccccc2)cc1 35.5 µM [inhibitor, single point]
COc1ccc(NC(=O)Nc2nnc(N(C)C3CCCCC3)s2)c(OC)c1 22.4 µM [inhibitor, partial curve, poor fit]

Following part:

Activity change, negative = inhibition, inactive:
O=C(OCc1cn([C@H]2C[C@H](c3ccccc3)N(Cc3cccs3)C[C@@H]2O)nn1)c1ccccc1 -19.8%
COc1ccc2c(Sc3ccc(Cl)cc3)c(C(=O)NCCCN3CCCCC3)[nH]c2c1 -4.75%
O=c1cc(O)c2sc(Nc3ccc(F)cc3)nc2[nH]1 -5.44%
COc1ccc2nc(SCC(=O)NC3CCCCC3C)[nH]c2c1 (configuration not stated) -9.75%
Cc1ccc2cc(CCNC(=O)c3cccs3)c(=O)[nH]c2c1C -6.82%
COc1cccc(/C=N/N2C(=O)CSC2=S)c1O -21.2%
O=c1c2c(nc3c(-c4ccc(Cl)cc4)c[nH]n13)CCCC2 -24%
Cc1c(NC(=O)c2ccc(F)cc2)c(=O)n(-c2ccccc2)n1C -22.8%
CC(C)C(NS(=O)(=O)c1ccccc1F)C(=O)N1CCc2ccccc2C1 (configuration not stated) -14.7%
Cn1c(-c2ccccc2)c(C(=O)CC#N)c2ccccc21 -10.3%
COc1ccc(Nc2c([N+](=O)[O-])ccc3c2=NC2(CCCCC2)N=3)cc1 -20.1%
CC(C)c1ccc(NC(=O)NC2(C(=O)NCc3cccnc3)CCCCC2)cc1 -3.76%
Cc1ccc(-n2ncc3c(NCCC4=CCCCC4)ncnc32)cc1C -30.6%
CCCc1c(C(=O)N/N=C(\C)c2ccc(CC(C)C)cc2)nnn1-c1nonc1N -3.58%
O=[N+]([O-])c1ccc(-c2cnc(SC(c3ccccc3)c3ccccc3)[nH]2)cc1 -20.5%
CCOc1ccc(C(=O)N/N=C(/C)C2C(=O)c3ccccc3C2=O)cc1 -6.12%
Cc1ccc(NC(=O)CCn2cccc2)cc1 -12.6%
COc1cccc(-c2nc(C(N)=O)c3c(n2)n(-c2ccc4c(c2)OCO4)c(=O)n3C)c1OC -14.4%
CCCCC#Cc1ccc(C(=O)NNC(=O)Nc2ccccc2)o1 -6.66%
O=C(CSc1nc2c(c(=O)[nH]1)CN(Cc1ccc3c(c1)OCO3)CC2)Nc1ccc(F)cc1 -22.2%
C/C=C\C=C/C(=O)Nc1cccc(C2=NOC3(C2)C[C@@H](C(N)=O)N(C(=O)/C=C/CC)C3)c1 (some centres not stated) 4.06%

Arranged by formula weight (ascending): 3 of the compounds above.
Activity change, negative = inhibition, inactive:
COc1ccc(Nc2c([N+](=O)[O-])ccc3c2=NC2(CCCCC2)N=3)cc1 -20.1%
CC(C)C(NS(=O)(=O)c1ccccc1F)C(=O)N1CCc2ccccc2C1 (configuration not stated) -14.7%
COc1ccc2c(Sc3ccc(Cl)cc3)c(C(=O)NCCCN3CCCCC3)[nH]c2c1 -4.75%
